# No constants are given. Whether binding was seen depends on the method and setting. In cells and extracts the contact can be indirect. Some entries that bind do so weakly or less than the wild type.
# By UniProt entry, the sequences of proteins in these tests, tags left out. Residues count along the entry.
# UniProt Q9DC51: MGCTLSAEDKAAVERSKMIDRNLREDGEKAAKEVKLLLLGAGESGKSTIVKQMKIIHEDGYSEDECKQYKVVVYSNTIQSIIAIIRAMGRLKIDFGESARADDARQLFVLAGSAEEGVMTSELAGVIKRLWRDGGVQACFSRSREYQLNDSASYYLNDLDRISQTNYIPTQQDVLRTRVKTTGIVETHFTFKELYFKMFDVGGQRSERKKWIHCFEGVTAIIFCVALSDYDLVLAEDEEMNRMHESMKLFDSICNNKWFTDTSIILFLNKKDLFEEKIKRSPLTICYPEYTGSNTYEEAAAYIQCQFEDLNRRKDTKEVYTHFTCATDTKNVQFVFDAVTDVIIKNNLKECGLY
# UniProt B2RSH2: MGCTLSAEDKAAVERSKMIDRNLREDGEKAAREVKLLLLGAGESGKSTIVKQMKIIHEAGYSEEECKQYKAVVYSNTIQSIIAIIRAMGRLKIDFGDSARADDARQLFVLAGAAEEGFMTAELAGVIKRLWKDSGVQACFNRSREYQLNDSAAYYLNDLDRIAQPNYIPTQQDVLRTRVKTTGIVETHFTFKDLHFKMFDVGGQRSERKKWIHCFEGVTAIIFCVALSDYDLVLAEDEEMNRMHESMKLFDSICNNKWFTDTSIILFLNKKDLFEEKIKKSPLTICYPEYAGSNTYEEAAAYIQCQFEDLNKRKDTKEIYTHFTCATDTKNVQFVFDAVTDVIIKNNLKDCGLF
# UniProt Q5NCP0, residues 24-784: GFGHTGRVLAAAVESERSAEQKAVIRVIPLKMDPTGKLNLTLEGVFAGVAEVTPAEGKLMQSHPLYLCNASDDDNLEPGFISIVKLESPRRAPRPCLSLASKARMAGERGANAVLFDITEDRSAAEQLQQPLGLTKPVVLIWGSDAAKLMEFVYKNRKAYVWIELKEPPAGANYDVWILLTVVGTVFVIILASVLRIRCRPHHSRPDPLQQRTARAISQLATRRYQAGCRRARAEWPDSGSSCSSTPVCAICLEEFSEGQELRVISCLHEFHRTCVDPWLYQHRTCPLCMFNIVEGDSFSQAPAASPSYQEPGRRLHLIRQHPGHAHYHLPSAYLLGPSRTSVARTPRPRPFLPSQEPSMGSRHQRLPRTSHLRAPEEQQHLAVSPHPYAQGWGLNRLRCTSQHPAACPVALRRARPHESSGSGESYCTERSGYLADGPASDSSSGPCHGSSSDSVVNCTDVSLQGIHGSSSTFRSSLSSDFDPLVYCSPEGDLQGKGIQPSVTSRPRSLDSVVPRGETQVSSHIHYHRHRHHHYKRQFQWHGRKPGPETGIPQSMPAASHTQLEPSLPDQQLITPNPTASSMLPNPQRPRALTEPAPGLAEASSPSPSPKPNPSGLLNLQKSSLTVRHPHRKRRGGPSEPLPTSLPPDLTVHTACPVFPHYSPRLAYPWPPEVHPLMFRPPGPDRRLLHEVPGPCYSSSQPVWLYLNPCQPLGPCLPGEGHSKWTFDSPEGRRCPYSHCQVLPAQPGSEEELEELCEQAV
# Legend:
# Assay in all cases: co-IP; WT MEFs treated with RSPO3, endogenous proteins; which protein was precipitated is not given
# [1] = target: T1, leucine-rich repeat G protein-coupled receptor 4 (LGR4) (mouse (endogenous in MEFs)) (UniProt A2ARI4)
# T1 sequence: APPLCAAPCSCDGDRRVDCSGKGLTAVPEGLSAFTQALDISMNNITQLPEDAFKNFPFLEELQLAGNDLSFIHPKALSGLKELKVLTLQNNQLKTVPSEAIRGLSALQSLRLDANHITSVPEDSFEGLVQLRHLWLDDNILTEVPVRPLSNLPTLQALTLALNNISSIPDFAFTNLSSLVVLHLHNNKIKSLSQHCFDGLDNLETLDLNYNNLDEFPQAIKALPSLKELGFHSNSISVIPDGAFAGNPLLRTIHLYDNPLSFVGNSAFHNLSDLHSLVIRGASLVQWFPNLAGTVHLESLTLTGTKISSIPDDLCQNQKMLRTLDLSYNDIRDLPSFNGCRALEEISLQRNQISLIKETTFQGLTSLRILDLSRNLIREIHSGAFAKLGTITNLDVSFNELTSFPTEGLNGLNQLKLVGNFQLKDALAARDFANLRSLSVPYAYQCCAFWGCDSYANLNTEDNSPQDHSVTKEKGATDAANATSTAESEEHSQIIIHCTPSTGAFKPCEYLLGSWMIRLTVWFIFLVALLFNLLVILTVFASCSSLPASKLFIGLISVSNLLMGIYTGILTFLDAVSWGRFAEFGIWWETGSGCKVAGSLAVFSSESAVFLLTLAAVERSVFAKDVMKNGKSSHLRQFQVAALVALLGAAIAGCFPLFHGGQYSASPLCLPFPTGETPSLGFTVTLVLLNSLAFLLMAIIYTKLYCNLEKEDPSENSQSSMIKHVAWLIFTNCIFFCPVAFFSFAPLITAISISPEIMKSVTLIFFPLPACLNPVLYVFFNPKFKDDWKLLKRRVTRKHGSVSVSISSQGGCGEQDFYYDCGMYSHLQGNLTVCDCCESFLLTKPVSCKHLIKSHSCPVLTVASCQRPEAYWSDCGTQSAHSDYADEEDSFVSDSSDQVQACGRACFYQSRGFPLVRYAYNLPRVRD
# [2] = target: T2, Grb2-associated binder 1 (Gab1) (mouse (endogenous in MEFs)) (UniProt Q9QYY0)
# T2 sequence: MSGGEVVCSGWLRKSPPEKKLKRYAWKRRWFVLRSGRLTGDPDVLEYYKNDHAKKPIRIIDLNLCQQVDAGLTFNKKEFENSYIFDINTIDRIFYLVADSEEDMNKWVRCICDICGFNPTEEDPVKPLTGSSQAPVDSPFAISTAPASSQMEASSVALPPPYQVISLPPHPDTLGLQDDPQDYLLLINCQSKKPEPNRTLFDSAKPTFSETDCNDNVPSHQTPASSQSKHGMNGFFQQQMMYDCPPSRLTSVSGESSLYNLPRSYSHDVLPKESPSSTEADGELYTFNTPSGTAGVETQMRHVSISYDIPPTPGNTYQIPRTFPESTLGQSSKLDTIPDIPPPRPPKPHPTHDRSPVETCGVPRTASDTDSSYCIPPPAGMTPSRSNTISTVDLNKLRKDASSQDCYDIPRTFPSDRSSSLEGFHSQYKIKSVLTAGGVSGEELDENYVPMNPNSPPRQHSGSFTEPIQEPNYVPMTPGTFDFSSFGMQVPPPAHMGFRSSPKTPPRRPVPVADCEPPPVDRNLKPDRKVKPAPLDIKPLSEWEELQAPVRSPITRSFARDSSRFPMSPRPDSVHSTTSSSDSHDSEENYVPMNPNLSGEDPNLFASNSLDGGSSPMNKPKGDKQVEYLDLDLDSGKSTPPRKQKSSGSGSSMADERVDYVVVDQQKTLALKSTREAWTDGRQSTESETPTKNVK
# [3] = target: G protein inhibitory α subunit 3 (Gαi3) (mouse (endogenous in MEFs)) (UniProt Q9DC51)
# [4] = target: G protein inhibitory α subunit 1 (Gαi1) (mouse (endogenous in MEFs)) (UniProt B2RSH2)
binding [1],binding [2],binding [3],binding [4],Substance
binds,binds,–,–,G protein inhibitory α subunit 1 (Gαi1) (from UniProt B2RSH2 1-354)
binds,binds,–,–,G protein inhibitory α subunit 3 (Gαi3) (from UniProt Q9DC51 1-354)
–,no binding,no binding,no binding,ring finger protein 43 (RNF43) (from UniProt Q5NCP0 24-784)

# Reference: paper PMC10098032
